{"source": "patent US20100279976A1", "about": "“USE OF ARTEMISININ AND ITS DERIVATIVES IN CANCER THERAPY” (SHANGHAI INSTITUTES FOR BIOLOGICAL SCIENCES, CAS, priority 2009, published 2010)", "key": {"[1]": {"tested_on": "Hep3B xenograft tumors", "assay": "Hep3B xenograft model in nude mice", "type": "in vivo", "conditions": "oral 50 and 100 mg/kg/d, alone", "protocol": "(§1) Female athymic nude mice (nu/nu; 4-6 wk of age) may be obtained from Shanghai Slac Laboratory Animal Co. Ltd. All animals may be fed with commercial diet and water ad libitum. The human HCC xenograft models in mice may be as follows. Briefly, HepG2 and Hep3B cells may be re-suspended in serum-free DMEM with Matrigel basement membrane matrix at a 5:1 ratio. The cell suspension may then be injected (7×10^6 cells; total volume, 0.2 mL) into the left inguinal area of the BALB/c nude mice. The animals may be monitored for activity and physical condition everyday, and the determination of body weight and measurement of tumor mass may be done every 3 d. Tumor mass may be determined by caliper measurement in two perpendicular diameters of the implant and calculated using the formula ½a×b^2, where a stands for the long diameter and b is the short diameter. The animal use and care protocol is approved by the Institutional Review Board of the Institute for Nutritional Sciences, Chinese Academy of Sciences.\nNude mice bearing HepG2 and Hep3B xenografts, randomly divided into various treatment and control groups (five mice per group), may be treated orally with either ART or DHA suspended in 5% sesame oil+95% saline, at a dose of 50 or 100 mg/kg/d, or a combination of ART or DHA with gemcitabine or with saline (as controls). […]"}, "[2]": {"tested_on": "HepG2 cells", "assay": "Western blot of apoptosis-related proteins", "type": "cell-based, human", "conditions": "HepG2, 48 h", "protocol": "Whole-cell lysates may be generated with radioimmunoprecipitation assay lysis buffer, and after centrifugation, the supernatant fraction may be collected for immunoblotting. Proteins may be resolved by SDS-PAGE and transferred onto a nitrocellulose membrane. After blocking with 5% nonfat milk in blocking buffer [20 mmol/L TBS (pH 7.5) containing 0.1% Tween 20], the membrane may be incubated with the desired primary antibody for 2 h at room temperature and then incubated with appropriate peroxidase conjugated secondary antibody. The immunoreactive bands may be visualized using the ECL Plus Western Blotting Detection System. The level of ([…] for each sample may be used as loading control. Tumor tissues may be collected at the termination of the experiment and homogenized using a homogenizer in ice-cold lysis buffer. Supernatants may be collected and used to examine the expression of different proteins by Western blot analysis."}, "[3]": {"tested_on": "A2780 and OVCAR-3 cells", "assay": "Mitochondrial membrane potential (JC-1) and cytochrome c release", "type": "cell-based, human", "conditions": "24 hrs"}, "[4]": {"tested_on": "HepG2 and Hep3B cells", "assay": "Western blot of cell cycle-related proteins", "type": "cell-based, human", "conditions": "48 h"}, "[5]": {"tested_on": "OVCAR-3 cells", "assay": "Annexin V-FITC apoptosis assay, OVCAR-3", "type": "cell-based, human", "conditions": "OVCAR-3, 10 μM, 24 hrs", "protocol": "(§2) ART- and DHA-induced apoptosis alone or in combination with gemcitabine in HepG2 and Hep3B cells or in combination with carboplatin in ovarian cancer cells may be determined by flow cytometry using the Annexin V-FITC Apoptosis Detection kit following the manufacturer's instructions. […] The cells may then be harvested, washed in PBS, and incubated with Annexin V and propidium iodide for staining in binding buffer at room temperature for 10 min in the dark. The stained cells may be analyzed using the FACSAria instrument."}, "[6]": {"tested_on": "A2780 xenograft tumors", "type": "in vivo", "conditions": "A2780 / OVCAR-3 xenograft tumors (FIG. 12C), Western blot", "protocol": "Four to six week old female athymic nude mice (BALB/c, nu/nu) may be purchased from Shanghai Experimental Animal Center (Shanghai, China). Animal studies are approved by the Institute for Nutritional Sciences. The tumor xenograft model may be established as follows. […] Aliquots of cells (˜5×10^6 cells/0.2 ml) may be injected subcutaneously into the left inguinal area of the mice. The tumor growth and body weight of the mice may be monitored every other day. Tumor mass may be determined. Mice bearing palpable tumors (˜70 mg) may be randomly divided into treatment and control groups n=5 mice/group). CBP may be dissolved in saline, and DHA may be dissolved in cremophor EL:ethanol:saline (5:5:90, v/v/v). DHA may be administered via i.p. injection at doses of 10 and 25 mg/kg/5 days/week for 3 weeks) alone or combined with CBP (at a single dose of 120 mg/kg, once on day 0). The control group receives saline only. Mice may be killed on day 18. Tumors may be carefully excised, trimmed of extraneous fat or connective tissue, and homogenized in RIPA buffer (100 mg tumor tissue/1 ml RIPA) and prepared for immunoblotting analysis as described above."}, "[7]": {"tested_on": "A2780 and OVCAR-3 ovarian cancer cell lines", "assay": "Western blot of apoptosis-related proteins, ovarian cancer cells", "type": "cell-based, human", "conditions": "A2780 and OVCAR-3, 24 hrs"}, "[8]": {"tested_on": "A2780 cells", "assay": "Annexin V-FITC apoptosis assay, A2780", "type": "cell-based, human", "conditions": "24 hrs", "protocol": "as §2"}, "[9]": {"tested_on": "HepG2 xenograft tumors", "assay": "HepG2 xenograft model in nude mice", "type": "in vivo", "conditions": "Western blot", "protocol": "as §1\nNude mice bearing HepG2 and Hep3B xenografts, randomly divided into various treatment and control groups (five mice per group), may be treated orally with either ART or DHA suspended in 5% sesame oil+95% saline, at a dose of 50 or 100 mg/kg/d, or a combination of ART or DHA with gemcitabine or with saline (as controls). In the mice receiving combination therapy, 80 mg/kg gemcitabine, representing one fifth of the reported most tolerated dose in mice, may be administered i.p. on days 7, 11, and 15 to avoid possible side effects and to illustrate potential chemo-sensitization effects in this combination regimen."}}, "note": "At least one compound was matched to its structure with a doubt left."}
{"compound": "C[C@H]1[C@@H](O)O[C@@H]2O[C@@]3(C)CC[C@H]4[C@H](C)CC[C@@H]1[C@@]24OO3", "note": "[DHA, dihydroartemisinin]", "values": [{"measurement": "effect on tumor growth", "setting": "[1]", "result": "greater, dose-dependent therapeutic effects compared with ART"}, {"measurement": "MDM2 level", "setting": "[2]", "result": "decrease"}, {"measurement": "cleavage of caspase-3 and PARP", "setting": "[2]", "result": "dose-dependent increase"}, {"measurement": "level of Bax", "setting": "[2]", "result": "concomitant increase"}, {"measurement": "level of Bcl-2 protein", "setting": "[2]", "result": "dose-dependent reduction"}, {"measurement": "p53 level", "setting": "[2]", "result": "dose-dependent increase"}, {"measurement": "mitochondrial cytochrome c level", "setting": "[3]; 0-50 μM, Western blot", "result": "dose-dependent reduction in mitochondrial cytochrome c"}, {"measurement": "mitochondrial membrane potential (JC-1 red/green fluorescence ratio)", "setting": "[3]; A2780 and OVCAR-3, 5 to 50 μM", "result": "dose dependent dissipation in potential"}, {"measurement": "expression of cyclin D1, cyclin E, Cdk2, and Cdk4", "setting": "[4]; HepG2 and Hep3B, 5, 25, 50 μmol/L", "result": "marked reduction"}, {"measurement": "E2F1 expression", "setting": "[4]; HepG2 and Hep3B", "result": "decreased"}, {"measurement": "Kip1/p27 and Cip1/p21 expression", "setting": "[4]; HepG2 and Hep3B", "result": "dose-dependent increases"}, {"measurement": "increase in apoptosis versus control", "setting": "[5]", "result": "more than eightfold"}, {"measurement": "pro-caspase-8 in tumor", "setting": "[6]", "result": "decrease"}, {"measurement": "Bcl-2 and Bid", "setting": "[7]", "result": "dose-dependent decrease"}, {"measurement": "Fas and FADD", "setting": "[7]", "result": "dose dependent up-regulation"}, {"measurement": "cleaved-PARP and Bax", "setting": "[7]", "result": "dose-dependent increase"}, {"measurement": "pro-caspases-3, 9 and 8", "setting": "[7]", "result": "dose-dependent cleavage"}, {"measurement": "increase in apoptosis versus control", "setting": "[8]; A2780, 10 μM", "result": "about fivefold"}, {"measurement": "increase in apoptosis versus control", "setting": "[8]; A2780, 25 μM", "result": "more than eightfold"}, {"measurement": "G1-specific Cdks, cyclin D1, cyclin E, Cdk2, Cdk4, and E2F1 in tumor tissue", "setting": "[9]", "result": "decrease"}, {"measurement": "MDM2 in tumor tissue", "setting": "[9]", "result": "decrease"}, {"measurement": "p21 and p27 in tumor tissue", "setting": "[9]", "result": "increase"}]}
